No constants are given. Whether binding was seen depends on the method and setting. Some binding calls cover weakened binding; strength is not graded here.
What was measured:
[1] = target: T1, acid soluble type I collagen from human placenta (human) (UniProt P02452+P08123); test: ELISA of plasma VWF bound to immobilized type I collagen
[2] = target: T1, acid soluble type I collagen from human placenta (human); test: ELISA: mouse platelet poor plasma added to wells coated with type I collagen, bound VWF detected (OD) [panel E]
[3] = target: murine platelet glycoprotein Ib alpha (GPIb α) on mouse platelets (mouse) (UniProt O35930); test: murine platelets perfused over coverslips coated with VWF-A1, 800 s-1

Amino acid sequences for entries named in this document (tags omitted). A change or cut given only in a name is not applied to a line headed by its entry. Residues count along the entry.
UniProt P02452: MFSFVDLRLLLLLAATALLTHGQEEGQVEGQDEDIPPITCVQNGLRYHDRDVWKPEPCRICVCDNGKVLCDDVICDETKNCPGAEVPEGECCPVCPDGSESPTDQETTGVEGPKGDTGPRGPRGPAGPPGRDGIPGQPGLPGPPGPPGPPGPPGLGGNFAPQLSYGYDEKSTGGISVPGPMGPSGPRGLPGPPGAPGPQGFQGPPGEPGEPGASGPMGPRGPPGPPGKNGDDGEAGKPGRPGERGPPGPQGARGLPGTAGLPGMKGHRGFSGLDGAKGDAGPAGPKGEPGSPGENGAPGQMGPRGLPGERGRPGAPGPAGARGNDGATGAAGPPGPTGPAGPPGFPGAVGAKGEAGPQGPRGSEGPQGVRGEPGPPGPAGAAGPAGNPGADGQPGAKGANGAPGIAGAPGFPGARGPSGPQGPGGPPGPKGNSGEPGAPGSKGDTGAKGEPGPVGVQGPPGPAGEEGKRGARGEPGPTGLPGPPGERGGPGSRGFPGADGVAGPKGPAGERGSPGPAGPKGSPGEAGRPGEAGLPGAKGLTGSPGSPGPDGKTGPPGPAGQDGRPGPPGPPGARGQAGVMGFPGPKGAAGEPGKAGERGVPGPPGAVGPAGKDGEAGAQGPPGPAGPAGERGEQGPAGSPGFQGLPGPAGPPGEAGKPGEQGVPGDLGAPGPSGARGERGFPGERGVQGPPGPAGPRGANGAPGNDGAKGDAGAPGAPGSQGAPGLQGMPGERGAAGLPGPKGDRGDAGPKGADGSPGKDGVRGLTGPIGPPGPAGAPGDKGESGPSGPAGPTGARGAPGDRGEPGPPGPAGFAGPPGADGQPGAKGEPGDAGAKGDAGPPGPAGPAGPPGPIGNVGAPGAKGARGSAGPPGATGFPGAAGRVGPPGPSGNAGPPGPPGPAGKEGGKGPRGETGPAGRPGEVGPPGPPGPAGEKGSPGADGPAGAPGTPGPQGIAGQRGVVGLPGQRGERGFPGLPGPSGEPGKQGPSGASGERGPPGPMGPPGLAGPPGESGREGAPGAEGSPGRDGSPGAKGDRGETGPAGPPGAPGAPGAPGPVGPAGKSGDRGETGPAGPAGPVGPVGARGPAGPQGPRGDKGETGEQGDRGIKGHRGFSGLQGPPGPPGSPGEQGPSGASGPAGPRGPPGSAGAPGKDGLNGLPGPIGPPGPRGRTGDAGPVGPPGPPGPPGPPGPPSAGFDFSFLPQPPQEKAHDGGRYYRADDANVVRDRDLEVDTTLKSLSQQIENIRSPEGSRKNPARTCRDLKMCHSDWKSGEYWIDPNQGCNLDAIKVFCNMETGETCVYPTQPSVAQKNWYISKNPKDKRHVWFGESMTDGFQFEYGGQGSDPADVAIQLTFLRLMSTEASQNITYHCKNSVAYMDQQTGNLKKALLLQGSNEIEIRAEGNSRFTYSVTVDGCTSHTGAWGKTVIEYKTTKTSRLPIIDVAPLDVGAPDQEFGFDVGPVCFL
UniProt P08123: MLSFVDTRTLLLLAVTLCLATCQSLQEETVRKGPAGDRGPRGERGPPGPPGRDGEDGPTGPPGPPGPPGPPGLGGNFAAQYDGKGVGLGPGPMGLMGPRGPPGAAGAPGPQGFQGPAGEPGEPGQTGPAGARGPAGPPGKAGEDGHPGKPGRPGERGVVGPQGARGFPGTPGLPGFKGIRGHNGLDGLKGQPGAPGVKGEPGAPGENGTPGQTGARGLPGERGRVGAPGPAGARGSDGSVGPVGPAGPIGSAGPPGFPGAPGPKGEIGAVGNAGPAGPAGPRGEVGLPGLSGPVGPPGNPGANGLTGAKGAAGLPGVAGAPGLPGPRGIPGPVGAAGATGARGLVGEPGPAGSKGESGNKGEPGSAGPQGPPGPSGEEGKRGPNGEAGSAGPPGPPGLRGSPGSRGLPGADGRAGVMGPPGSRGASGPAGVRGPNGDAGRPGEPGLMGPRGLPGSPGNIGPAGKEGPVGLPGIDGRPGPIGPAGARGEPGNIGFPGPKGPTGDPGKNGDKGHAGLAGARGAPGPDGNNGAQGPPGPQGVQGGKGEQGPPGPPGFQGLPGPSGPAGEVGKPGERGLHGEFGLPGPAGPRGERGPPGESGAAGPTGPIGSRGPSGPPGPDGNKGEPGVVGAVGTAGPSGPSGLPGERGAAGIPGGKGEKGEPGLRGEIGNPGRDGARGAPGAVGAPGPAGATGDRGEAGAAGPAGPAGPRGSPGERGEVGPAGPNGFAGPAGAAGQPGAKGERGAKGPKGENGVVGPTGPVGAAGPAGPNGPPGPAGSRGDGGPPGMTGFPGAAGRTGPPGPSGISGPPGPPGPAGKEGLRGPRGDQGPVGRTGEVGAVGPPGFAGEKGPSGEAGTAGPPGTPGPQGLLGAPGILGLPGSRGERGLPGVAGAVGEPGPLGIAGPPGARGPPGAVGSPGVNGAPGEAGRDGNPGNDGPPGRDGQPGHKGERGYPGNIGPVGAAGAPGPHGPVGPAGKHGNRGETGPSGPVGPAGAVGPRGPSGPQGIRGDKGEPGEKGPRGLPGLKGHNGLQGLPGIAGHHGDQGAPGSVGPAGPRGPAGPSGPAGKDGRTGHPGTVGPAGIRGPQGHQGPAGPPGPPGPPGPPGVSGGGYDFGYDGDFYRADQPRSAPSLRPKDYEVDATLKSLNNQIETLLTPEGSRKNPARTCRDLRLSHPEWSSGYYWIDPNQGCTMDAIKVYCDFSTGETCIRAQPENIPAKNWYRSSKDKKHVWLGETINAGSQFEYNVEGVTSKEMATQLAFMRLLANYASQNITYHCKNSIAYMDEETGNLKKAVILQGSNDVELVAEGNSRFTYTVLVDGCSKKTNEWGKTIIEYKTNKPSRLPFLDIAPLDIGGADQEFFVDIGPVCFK
UniProt O35930, residues 17-734: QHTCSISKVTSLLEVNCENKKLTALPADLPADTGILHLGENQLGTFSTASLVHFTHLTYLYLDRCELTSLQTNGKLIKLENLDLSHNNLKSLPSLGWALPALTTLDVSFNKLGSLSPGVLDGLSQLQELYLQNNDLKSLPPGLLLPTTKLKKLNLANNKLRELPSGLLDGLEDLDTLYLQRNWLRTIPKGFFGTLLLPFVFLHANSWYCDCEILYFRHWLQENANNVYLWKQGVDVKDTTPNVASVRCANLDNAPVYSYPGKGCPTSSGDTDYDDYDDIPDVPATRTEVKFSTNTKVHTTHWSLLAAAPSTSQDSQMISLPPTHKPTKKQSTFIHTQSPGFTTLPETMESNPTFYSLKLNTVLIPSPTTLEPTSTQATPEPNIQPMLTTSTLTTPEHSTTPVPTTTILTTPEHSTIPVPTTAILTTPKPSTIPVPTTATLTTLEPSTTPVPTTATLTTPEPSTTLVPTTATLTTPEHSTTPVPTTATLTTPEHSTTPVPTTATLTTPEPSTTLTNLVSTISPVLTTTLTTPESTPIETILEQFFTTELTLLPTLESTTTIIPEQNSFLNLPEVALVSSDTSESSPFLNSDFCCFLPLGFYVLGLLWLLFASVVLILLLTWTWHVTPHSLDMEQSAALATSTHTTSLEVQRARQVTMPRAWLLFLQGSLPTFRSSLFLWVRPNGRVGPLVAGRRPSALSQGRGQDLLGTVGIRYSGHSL
UniProt Q8CIZ8: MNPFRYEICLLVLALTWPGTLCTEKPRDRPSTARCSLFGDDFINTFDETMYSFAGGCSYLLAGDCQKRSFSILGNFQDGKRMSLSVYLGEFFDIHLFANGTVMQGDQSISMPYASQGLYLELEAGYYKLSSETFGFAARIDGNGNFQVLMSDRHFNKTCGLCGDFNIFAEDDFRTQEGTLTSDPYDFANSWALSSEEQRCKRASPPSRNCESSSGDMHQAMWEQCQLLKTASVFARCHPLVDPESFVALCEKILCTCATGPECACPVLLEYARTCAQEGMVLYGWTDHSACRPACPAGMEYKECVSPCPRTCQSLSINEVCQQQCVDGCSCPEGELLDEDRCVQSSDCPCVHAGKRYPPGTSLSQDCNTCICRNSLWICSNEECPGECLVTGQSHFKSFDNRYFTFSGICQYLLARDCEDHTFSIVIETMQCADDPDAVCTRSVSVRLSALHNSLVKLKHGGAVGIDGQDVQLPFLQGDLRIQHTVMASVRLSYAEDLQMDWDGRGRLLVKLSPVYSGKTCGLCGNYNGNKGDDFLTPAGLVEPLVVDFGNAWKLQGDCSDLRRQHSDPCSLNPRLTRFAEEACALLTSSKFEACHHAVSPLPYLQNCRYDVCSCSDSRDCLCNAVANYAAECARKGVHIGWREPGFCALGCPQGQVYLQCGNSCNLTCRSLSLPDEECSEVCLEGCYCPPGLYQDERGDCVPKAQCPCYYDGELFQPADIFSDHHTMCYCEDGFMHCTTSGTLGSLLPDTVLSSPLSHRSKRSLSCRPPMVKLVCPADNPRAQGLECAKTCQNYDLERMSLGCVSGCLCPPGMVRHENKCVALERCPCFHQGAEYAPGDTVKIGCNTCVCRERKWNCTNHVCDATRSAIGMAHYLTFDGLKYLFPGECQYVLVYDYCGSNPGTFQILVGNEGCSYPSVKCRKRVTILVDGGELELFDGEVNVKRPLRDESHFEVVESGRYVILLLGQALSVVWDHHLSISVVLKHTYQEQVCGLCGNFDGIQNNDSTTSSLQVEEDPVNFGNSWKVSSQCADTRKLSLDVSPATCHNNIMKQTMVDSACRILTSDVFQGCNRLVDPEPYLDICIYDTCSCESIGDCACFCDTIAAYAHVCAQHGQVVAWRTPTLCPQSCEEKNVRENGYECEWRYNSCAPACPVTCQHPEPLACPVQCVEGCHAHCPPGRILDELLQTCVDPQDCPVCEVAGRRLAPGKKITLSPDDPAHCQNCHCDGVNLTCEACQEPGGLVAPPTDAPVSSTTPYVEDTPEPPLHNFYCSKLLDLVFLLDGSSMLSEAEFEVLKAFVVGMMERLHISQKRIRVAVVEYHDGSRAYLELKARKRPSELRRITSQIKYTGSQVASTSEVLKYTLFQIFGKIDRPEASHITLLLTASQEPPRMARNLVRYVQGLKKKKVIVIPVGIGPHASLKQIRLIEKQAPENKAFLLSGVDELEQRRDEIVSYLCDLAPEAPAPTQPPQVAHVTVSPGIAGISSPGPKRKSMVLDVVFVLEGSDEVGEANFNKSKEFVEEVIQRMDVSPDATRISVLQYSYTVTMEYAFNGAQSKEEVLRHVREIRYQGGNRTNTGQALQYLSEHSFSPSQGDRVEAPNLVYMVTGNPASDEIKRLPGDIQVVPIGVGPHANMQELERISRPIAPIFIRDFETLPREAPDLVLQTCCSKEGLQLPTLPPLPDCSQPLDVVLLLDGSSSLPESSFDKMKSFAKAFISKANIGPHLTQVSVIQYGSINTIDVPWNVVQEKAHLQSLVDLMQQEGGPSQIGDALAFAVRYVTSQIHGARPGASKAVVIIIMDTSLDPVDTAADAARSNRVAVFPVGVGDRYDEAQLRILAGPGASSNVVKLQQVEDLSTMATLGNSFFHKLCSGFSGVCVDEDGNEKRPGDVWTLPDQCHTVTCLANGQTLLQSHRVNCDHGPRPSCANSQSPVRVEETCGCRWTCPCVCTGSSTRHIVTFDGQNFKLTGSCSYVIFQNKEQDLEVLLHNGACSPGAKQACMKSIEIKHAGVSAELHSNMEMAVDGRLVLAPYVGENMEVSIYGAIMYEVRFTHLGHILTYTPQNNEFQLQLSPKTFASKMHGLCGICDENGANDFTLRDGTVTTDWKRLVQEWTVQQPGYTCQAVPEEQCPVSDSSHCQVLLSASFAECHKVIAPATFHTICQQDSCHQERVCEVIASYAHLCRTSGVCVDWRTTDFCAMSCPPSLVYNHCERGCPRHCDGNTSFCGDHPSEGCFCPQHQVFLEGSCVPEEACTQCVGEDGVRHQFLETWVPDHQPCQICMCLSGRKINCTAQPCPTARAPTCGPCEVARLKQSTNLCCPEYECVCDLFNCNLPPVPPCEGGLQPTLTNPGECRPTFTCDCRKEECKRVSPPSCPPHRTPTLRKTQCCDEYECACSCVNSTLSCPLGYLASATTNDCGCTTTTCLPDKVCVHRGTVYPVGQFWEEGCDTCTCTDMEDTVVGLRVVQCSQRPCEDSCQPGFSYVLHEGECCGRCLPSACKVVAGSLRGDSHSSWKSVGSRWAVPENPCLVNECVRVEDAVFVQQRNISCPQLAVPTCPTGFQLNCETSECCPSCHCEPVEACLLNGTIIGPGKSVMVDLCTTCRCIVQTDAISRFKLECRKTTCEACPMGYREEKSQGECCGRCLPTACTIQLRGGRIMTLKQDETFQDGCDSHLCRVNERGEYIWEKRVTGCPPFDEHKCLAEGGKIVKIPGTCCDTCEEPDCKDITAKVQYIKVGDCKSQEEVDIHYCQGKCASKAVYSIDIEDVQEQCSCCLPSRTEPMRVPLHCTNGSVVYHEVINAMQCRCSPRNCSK

Row | Substance | binding [1] | binding [2] | binding [3]
1 | murine plasma VWF containing the 1326R>H mutation (VWF^1326R>H) (from UniProt Q8CIZ8 764-2813) (ligand) | binds | binds | –
2 | murine plasma von Willebrand factor (VWF), wild type (from UniProt Q8CIZ8 764-2813) (ligand) | binds | binds | –
3 | recombinant wild-type human VWF-A1 protein (residues 1238 to 1472), Examples 1-2 (from UniProt P04275 1238-1471) (ligand) | – | – | no binding (tested: 100 µg/ml coating)
